Article PMC10397319, “The phosphatidylinositol (4,5)-bisphosphate-Rab35 axis regulates migrasome formation” (Cell Research, 2023)
No constants are given. Whether binding was seen depends on the method and setting. Binding seen in cells or lysates may run through a third protein.

By UniProt entry, the sequences of proteins in these tests, tags left out. Residues count along the entry.
UniProt P08648, residues 42-1049: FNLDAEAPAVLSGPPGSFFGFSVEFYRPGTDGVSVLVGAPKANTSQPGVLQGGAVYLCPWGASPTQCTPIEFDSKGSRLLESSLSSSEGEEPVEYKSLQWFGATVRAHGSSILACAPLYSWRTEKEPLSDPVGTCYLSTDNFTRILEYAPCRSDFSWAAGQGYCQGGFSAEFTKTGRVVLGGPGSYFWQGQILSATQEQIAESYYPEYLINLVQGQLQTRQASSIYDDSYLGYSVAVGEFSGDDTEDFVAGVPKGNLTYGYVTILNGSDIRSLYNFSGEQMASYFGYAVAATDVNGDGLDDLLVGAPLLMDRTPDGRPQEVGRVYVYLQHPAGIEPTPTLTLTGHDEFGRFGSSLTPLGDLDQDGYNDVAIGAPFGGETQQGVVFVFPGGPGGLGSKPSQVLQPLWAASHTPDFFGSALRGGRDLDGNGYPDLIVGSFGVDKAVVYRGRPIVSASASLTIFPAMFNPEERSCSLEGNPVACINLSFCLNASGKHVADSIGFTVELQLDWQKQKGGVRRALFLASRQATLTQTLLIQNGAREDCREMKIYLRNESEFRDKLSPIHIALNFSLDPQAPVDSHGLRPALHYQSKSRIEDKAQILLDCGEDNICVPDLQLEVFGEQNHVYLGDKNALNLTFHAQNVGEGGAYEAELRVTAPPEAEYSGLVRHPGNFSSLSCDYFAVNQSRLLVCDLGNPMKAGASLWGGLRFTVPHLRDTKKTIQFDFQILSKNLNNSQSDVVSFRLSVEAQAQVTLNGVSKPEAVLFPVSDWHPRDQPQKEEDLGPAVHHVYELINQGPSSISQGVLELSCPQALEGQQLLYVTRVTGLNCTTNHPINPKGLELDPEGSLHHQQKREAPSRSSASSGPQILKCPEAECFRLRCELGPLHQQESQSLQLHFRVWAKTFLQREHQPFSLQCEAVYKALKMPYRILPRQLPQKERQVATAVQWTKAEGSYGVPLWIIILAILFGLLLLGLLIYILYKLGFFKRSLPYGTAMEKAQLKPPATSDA
UniProt Q5U316: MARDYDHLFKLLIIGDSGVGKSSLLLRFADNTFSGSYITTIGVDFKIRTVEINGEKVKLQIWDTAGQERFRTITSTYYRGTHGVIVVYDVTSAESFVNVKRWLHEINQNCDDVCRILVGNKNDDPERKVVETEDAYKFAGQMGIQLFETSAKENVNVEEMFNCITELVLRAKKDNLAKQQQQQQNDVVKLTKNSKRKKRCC

Target: integrin α5 (as used in co-immunoprecipitation) (UniProt P08648)
Experiment: co-IP; co-immunoprecipitation/western blotting; no details given, told only in the discussion

Rab35 (as used in co-immunoprecipitation) (from UniProt Q5U316 1-201)
binding: no binding
